# Reference: PMC12906820
# Experiments:
# [1] = biological target: T1, BIS2-GFP (Catharanthus roseus); experiment: co-IP; total protein extracts of N. benthamiana leaves co-infiltrated with BIS2-GFP and CrEIL1-FLAG; Protein G Sepharose, 4°C; blots with anti-GFP and anti-Flag (methods: anti-GFP for the precipitation; legend: anti-FLAG)
# T1 sequence: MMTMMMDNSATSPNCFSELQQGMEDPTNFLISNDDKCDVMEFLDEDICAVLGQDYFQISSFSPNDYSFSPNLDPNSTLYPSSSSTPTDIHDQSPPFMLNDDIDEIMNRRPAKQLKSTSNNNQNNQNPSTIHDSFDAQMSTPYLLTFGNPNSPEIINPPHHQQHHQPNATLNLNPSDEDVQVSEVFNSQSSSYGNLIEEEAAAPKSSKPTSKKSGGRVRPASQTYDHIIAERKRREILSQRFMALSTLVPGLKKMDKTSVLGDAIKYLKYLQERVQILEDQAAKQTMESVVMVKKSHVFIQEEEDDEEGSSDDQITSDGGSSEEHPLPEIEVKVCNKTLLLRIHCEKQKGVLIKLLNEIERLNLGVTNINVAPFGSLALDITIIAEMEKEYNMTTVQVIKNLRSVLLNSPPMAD
# [2] = biological target: T2, BIS2 fused to the GAL4 DNA-binding domain (BD) (Catharanthus roseus); experiment: two-hybrid; Matchmaker GAL4 system, yeast AH109; BIS2 in pGBKT7 as bait, CrEIL1 in pGADT7 as prey; selective media SD/Leu-/Trp-/His-, SD/Leu-/Trp-/His-/Ade- and with 3-AT; 3 days at 30°C
# T2 sequence: T1 sequence
# [3] = biological target: T3, GST-BIS2 protein (Catharanthus roseus); experiment: pull-down; in vitro, recombinant proteins from E. coli; CrEIL1-His pulled down with BIS2-GST, Western blot with anti-His antibody
# T3 sequence: T1 sequence
# [4] = biological target: T4, CrBIS2–cYFP (Catharanthus roseus); experiment: split reporter; BiFC with split YFP in N. benthamiana leaves after Agrobacterium infiltration; confocal laser microscopy
# T4 sequence: T1 sequence
substance,measurement,setting,value
CrEIL1-FLAG (Catharanthus roseus),binding,[1],binds
CrEIL1 fused to the GAL4 DNA-activation domain (AD) (Catharanthus roseus),binding,[2],binds
His-CrEIL1 protein (Catharanthus roseus),binding,[3],binds
nYFP–CrEIL1 (Catharanthus roseus),binding,[4],binds

# Results are given in words; binding and its absence hold for the method and conditions named. Binding can be weak; no strength is given. Where a sequence is shown, tags or fusion partners need not be part of it. For some of these results: In cells and extracts the contact can be indirect.
